Measurements as given in paper PMC9765454.

Target: Flag-tagged IRF3 (interferon regulatory factor 3)
Test: co-IP; HEK293T cells cotransfected with Flag-IRF3 or Flag-EV and HA-SOCS1 for 24 h; lysates precipitated with Flag beads overnight; washed 5 times with low-salt lysis buffer (50 mM HEPES, 150 mM NaCl, 1 mM EDTA, 10% glycerol, 1.5 mM MgCl2, 1% Triton X-100); Western blot

binding: binds
B1: HA-tagged SOCS1 (suppressor of cytokine signaling 1) (protein, UniProt O35716 1-212)
chain: MVARNQVAADNAISPAAEPRRRSEPSSSSSSSSPAAPVRPRPCPAVPAPAPGDTHFRTFRSHSDYRRITRTSALLDACGFYWGPLSVHGAHERLRAEPVGTFLVRDSRQRNCFFALSVKMASGPTSIRVHFQAGRFHLDGSRETFDCLFELLEHYVAAPRRMLGAPLRQRRVRPLQELCRQRIVAAVGRENLARIPLNPVLRDYLSSFPFQI

Results are given in words; binding and its absence hold for the method and conditions named. Binding seen in cells or lysates may run through a third protein. A result given as binding can be weak or reduced; the word gives no strength. Tags and fused reporters may be left off the sequences shown.
